Each structure is given as a SMILES string. The entries are a selection whose mix differs from that of the whole data set. Calls of active or inactive are those of the source. Calls follow the shape of the full dose curve.
Potency is read from the fitted curve at half-maximal effect.

The assay has as its system Schistosoma mansoni peroxiredoxin 2 (Prx2). The assay can be described thus: Schistosoma Mansoni Peroxiredoxins (Prx2). To be noted: S. mansoni Prx2 activity coupled to TGR/GSH (TGR is thioredoxin glutathione reductase), NADPH fluorescence loss, qHTS. The source says:
NIH Molecular Libraries Screening Centers Network [MLSCN]
NIH Chemical Genomics Center [NCGC]
David Williams [Illinois State University]
Schistosoma mansoni, a causative agent of schistosomiasis, resides in the bloodstream of their host up to 30 years without being eliminated by the host immune attack. One proposed survival mechanism is the production of an antioxidant "firewall" that neutralizes the oxidative assault of the host's immune attack. Schistosoma mansoni peroxiredoxins (Prx) are important parasite antioxidant proteins that play a crucial role in redox balance mechanisms. […] First, the proteins are essential for the parasite survival. […] Third, the protein(s) is amenable for study at the molecular level and can be produced in bacteria in large quantities, in soluble and active form. Inhibition of Prx activity was screened in a coupled-enzyme format with reducing equivalents being transferred from NADPH to […] intermediate via thioredoxin/glutathione reductase (TGR)-catalyzed reaction, then from thioredoxin to hydrogen peroxide via Prx-catalyzed electron transfer. A decrease in the fluorescence intensity of NADPH was used to measure the enzyme activity. Purified S. mansoni TGR and Prx were provided by Professor David L. Williams, Illinois State University.
NCGC Assay Protocol Summary:
100 mM phosphate buffer, pH 7.4, 10 mM EDTA, 0.01% Tween-20.
100 uM NADPH/25 nM TGR/700 uM GSH/50 nM Prx2 mixture in columns 1, 2, 5-48. Titration of control potassium antimonyl tartrate (PAT, from 1 mM, then 1:5) pin-transferred to lower half of column 2. Column 1 and upper half of column 2 are neutral (100% activity).
Three uL of reagents were dispensed to 1536-well Greiner black plates. Compounds and controls (20 nL) were transferred via Kalypsys PinTool. The plates were incubated for 15 min at room temperature, and then a 1 uL aliquot of 400 uM NADPH/700 uM GSH was added, immediately followed by a 1uL aliquot of 2.5 mM H2O2 (to start the reaction). The plate was transferred to ViewLux (Perkin-Elmer) High-throughput CCD imager where kinetic measurements (every 30 sec, for a total of 8 min) of NADPH fluorescence were taken using 365 nm excitation/450 nm emission filter set. During dispense, enzyme-containing reagent bottles were kept submerged into 4 deg C water bath to minimize degradation.
Keywords: NIH Roadmap, MLSCN, MLI, MLSMR, David Williams, Peroxyredoxin, Schistosoma mansoni, prx2, prx, , qHTS, NCGC
`CCSc1nnc(NC(=O)CSc2nnc(Cc3cccn3C)n2-c2ccc(C)cc2)s1`: the Potency is inactive: > 57 µM. For `COC(=O)c1cc(CSc2nc3ccc(C)cc3[nH]2)oc1C` the value was inactive: > 57 µM; for `Clc1ccc(-c2noc(CN3CCN(c4ccccc4)CC3)n2)cc1`, inactive: > 57 µM; for `CN(C)C(CNc1nnnn1-c1ccccc1)c1ccco1` (configuration not stated), inactive: > 57 µM. For `CCC(C)(C)NC(=O)CC(c1ccc(OC)cc1)n1cccc1` (configuration not stated) the value was inactive: > 57 µM. In the case of `O=S(=O)(Nc1ccc(S(=O)(=O)N2CCCCC2)cc1)c1cccs1` it was inactive: > 57 µM. With `O=C(Cn1ncc2c1-c1ccccc1OC2)N1CCc2ccccc21`, the Potency is inactive: > 57 µM. With `Cc1ccc(S(=O)(=O)N[C@H](C(=O)N2CCC(C(=O)N3CCC[C@H]3C(=O)O)CC2)C(C)C)cc1`, the Potency was inactive: > 57 µM. Regarding `CCn1c(CNc2ccc(OC)cc2)nnc1SCC(=O)N1CCCc2ccccc21`, the Potency is inactive: > 57 µM. In the case of `C[C@@H]1C[C@H]2[C@@H]3C[C@H](F)C4=CC(=O)C=C[C@@]4(C)[C@]3(F)[C@H](O)C[C@]2(C)[C@@]1(O)C(=O)CO` it was inactive: > 57 µM. Regarding `CCOC(=O)CN1CC23C=CC(O2)C(C(=O)NC2CCCCC2)C3C1=O` (configuration not stated), the Potency is inactive: > 57 µM. For `CC(=O)[C@@H]1CC[C@H]2[C@H]3CC[C@H]4C[C@@H](O)CC[C@]4(C)[C@@H]3C(=O)C[C@@]12C` the value was inactive: > 57 µM; for `O=C1c2cccc(O)c2C(=O)c2c(O[C@@H]3O[C@H](CO)[C@@H](O)[C@H](O)[C@@H]3O)cccc21`, active: 12.2 µM. For `COc1ccc(OCCSc2nnnn2C2CCCCC2)cc1` the value was inactive: > 57 µM; for `COC(=O)c1ccc(CNC(=O)CSc2nc3sc(C)c(C)c3c(=O)n2C)o1`, inactive: > 57 µM.

Take `Cc1ccc(SCc2nc(-c3cccnc3)no2)cc1`: the Potency was inactive: > 57 µM. In the case of `Cn1c(Nn2cnnc2)nc2ccccc21` it was inactive: > 57 µM; in that of `CCN1CCN(C(=O)CS(=O)Cc2nc(-c3ccc(OC)cc3)oc2C)CC1` (configuration not stated), inactive: > 57 µM. Take `NCCC[C@@H](N)C(=O)O`: the Potency is inactive: > 57 µM.

Take `Fc1cccc(CN2CCCCCCC2)c1`: the Potency was inactive: > 57 µM. On to `Cc1nc(NCC2CCCO2)[nH]c(=O)c1CCC(C)C` (configuration not stated), for which the Potency was inactive: > 57 µM.

Turning to `O=C(OC1CCCCC1)c1ccc2c(c1)C1C=CCC1C(C(=O)O)N2` (configuration not stated), the Potency was inactive: > 57 µM.

Turning to `O=C(O)c1ccc2c(c1)CC(c1ccccc1)OC2=O` (configuration not stated), the Potency was inactive: > 57 µM. For `CC(C)OCCCn1c(=S)[nH]c2ccc(N3CCOCC3)cc2c1=O` the value was inactive: > 57 µM; for `CCOc1cc(C)c(Cl)cc1S(=O)(=O)N(C)C`, inactive: > 57 µM. In the case of `CCN(CC)S(=O)(=O)c1cccc(C(=O)Nc2ccc(Cl)cn2)c1` it was inactive: > 57 µM; in that of `CCOc1ccccc1C(=O)N(Cc1cccs1)C1CCS(=O)(=O)C1` (configuration not stated), inactive: > 57 µM. In the case of `CCCn1c(=O)c(C)cn2nc(N)nc12` it was inactive: > 57 µM; in that of `CCC[C@H]1C[C@H](C(=O)N[C@@H]([C@H]2O[C@@H](SC)[C@@H](O)[C@@H](O)[C@@H]2O)[C@H](C)Cl)N(C)C1`, inactive: > 57 µM; in that of `CCc1ccc(Cn2nnc(C(=O)NCc3ccccc3OC)c2N)cc1`, inactive: > 57 µM. Take `O=C(O)C1CC=CCC1C(=O)NCc1cn2ccccc2n1` (configuration not stated): the Potency was inactive: > 57 µM. As to `CSc1ccccc1NC(=O)c1cc(CC(C)C)on1`, the Potency was inactive: > 57 µM. In the case of `CC(Sc1nc2ccccc2s1)C(=O)N1CCOCC1` (configuration not stated) it was inactive: > 57 µM. In the case of `O=C(CCSCCc1ccncc1)NCCCN1CCOCC1` it was inactive: > 57 µM; in that of `O=C(CCCn1c(=S)[nH]c2cc3c(cc2c1=O)OCO3)N1CCN(c2ccc(Cl)cc2)CC1`, inactive: > 57 µM; in that of `COc1cc(NS(C)(=O)=O)c(OC)cc1NC(=O)c1cccc(F)c1`, inactive: > 57 µM. With `Cn1c(CCN2CCCCC2)nc2cc(NS(=O)(=O)c3ccccc3)ccc21`, the Potency is inactive: > 57 µM. For `Cn1c(CCN2CCN(c3ccccc3)CC2)nc2cc(NC(=O)c3ccco3)ccc21` the value was inactive: > 57 µM; for `COc1ccc(Cl)cc1NC(=O)C1CCCN(c2cc(C)nc3ncnn23)C1` (configuration not stated), inactive: > 57 µM. For `CCOc1cc(C2C(C(=O)OC(C)C)=C(C)N=C3SCCC(=O)N32)ccc1OC(C)=O` (configuration not stated) the value was inactive: > 57 µM. For `Cc1ccc(CNc2ccc(O)cc2)cc1` the value was inactive: > 57 µM. Take `CCCCOC(=O)C1=C(C)Nc2nnnn2C1c1ccc(OC)c(OC)c1OC` (configuration not stated): the Potency was inactive: > 57 µM.

`O=S(=O)(c1cccc2nsnc12)N1CCN(c2ncccn2)CC1`: the Potency was inactive: > 57 µM. With `NC(N)=NCCN1CCCCCCC1`, the Potency is inactive: > 57 µM. For `CCC(C)(C)NC(=O)C(c1ccc(C)o1)N(Cc1cccs1)C(=O)Cn1nnc2ccccc21` (configuration not stated) the value was inactive: > 57 µM; for `CC(C)C(=O)N1CCN(C2=NS(=O)(=O)c3ccccc32)CC1`, inactive: > 57 µM; for `Cc1oc(C(=O)Nc2ccc(O)cc2)cc1COc1ccccc1`, inactive: > 57 µM.

(Values after PubChem BioAssay AID448 (National Center for Advancing Translational Sciences (NCATS), 2006).)
